# PubChem BioAssay AID540256 (National Center for Advancing Translational Sciences (NCATS), 2011)
# In all, about 300,000 compounds went through this assay and about 3,700 (1.2%) were called active. Inconclusive results, whose numbers are uncertain, are shown with a selection of clear calls. The call rests on the fitted dose curve; tested in HEK293 cells. Potencies of inconclusive entries are doubtful fits and often do not repeat.
# Assay: qHTS for Inhibitors of binding or entry into cells for Lassa Virus; further: nearly all actives have a fitted effect of over 50% in size
# Details: Lassa virus pseudotype entry inhibition, cell reporter; series mostly up to 37.9 µM
# Potency means the concentration at half of the fitted maximal effect.
row,SMILES,Potency
1,Cc1ccc(CNC(=O)c2ccc([N+](=O)[O-])o2)cc1,"inconclusive: 25.9 µM [inhibitor, partial curve, poor fit]"
2,Cc1nn(C(=O)Cn2ccc([N+](=O)[O-])n2)c(C)c1Cl,"inconclusive: 0.891 µM [inhibitor, single point]"
3,COc1ccc(N2C(=O)CC(SCCc3nc4ccccc4[nH]3)C2=O)cc1 (stereo unspecified),inactive
4,COc1cccc(C(C(=O)NC2CCCC2)N(Cc2ccc(C)cc2)C(=O)c2ccco2)c1OC (stereo unspecified),"inconclusive: 2.82 µM [activator, partial curve, poor fit]"
5,Cc1cccc(NC(=O)CN2C(=O)N/C(=C/c3cc(C)n(C(C)C)c3C)C2=O)c1,"inconclusive: 0.0046 µM [activator, full curve, poor fit]"
6,COc1ccccc1Nc1nc(-c2c(C)[nH]c3ccccc23)cs1,inactive
7,O=C(CCl)Nc1cn(-c2ccccc2)nc1-c1ccccc1,active: 4.11 µM
8,CCc1cc2cc3c(cc2nc1SCC(=O)Nc1nnc(C)s1)OCCO3,"inconclusive: 25.9 µM [inhibitor, single point]"
9,N#C/C(=C\c1ccc(OCc2ccccc2)cc1)C(=O)Nc1ccc(C(=O)O)cc1,"inconclusive: 35.5 µM [inhibitor, single point]"
10,COc1cc(NC(=O)CN2C(=O)NC(c3ccccc3)(c3ccccc3)C2=O)c(C)cc1[N+](=O)[O-],"inconclusive: 22.4 µM [inhibitor, partial curve]"
11,Cc1ccccc1C(=O)NCC(=O)Nc1ccccc1C(F)(F)F,inactive
12,O=C(CCN1C(=O)C2C3C=CC(C3)C2C1=O)Nc1ccccc1 (stereo unspecified),inactive
13,C=CCNC(=S)N/N=C/c1ccc(-c2cc(Cl)ccc2Cl)o1,inactive
14,COc1ccc(N2CCN(C(CNS(=O)(=O)c3ccc(C)cc3)c3ccccc3)CC2)cc1 (stereo unspecified),"inconclusive: 3.98 µM [inhibitor, partial curve]"
15,O=C(CCNC(=O)c1ccco1)NCCc1c[nH]c2ccccc12,inactive
16,O=C(NC(=S)N(CCc1ccccc1)CCc1ccccc1)c1ccco1,active: 8.91 µM
17,CC(C)(O)C#Cc1ccc(CN2CCCC(CO)(Cc3cccc(Cl)c3)C2)cc1 (stereo unspecified),"inconclusive: 1.16 µM [inhibitor, full curve, poor fit]"
18,O=C(CCCc1nc(-c2ccc(Cl)cc2)no1)NC1CCCCC1,"inconclusive: 35.5 µM [inhibitor, single point]"
19,CC(C)(C)NC(=O)COC(=O)c1snc(C(=O)NC2CCCCC2)c1N,"inconclusive: 7.3 µM [inhibitor, partial curve]"
20,CC(C)(C)c1ccc(-c2n[nH]c(=S)n2CCCN2CCOCC2)cc1,"inconclusive: 7.94 µM [inhibitor, partial curve, poor fit]"
21,Cc1cc(C)cc(NC(=O)Cn2c(SCc3cc(C)ccc3C)nc3ccncc32)c1,"inconclusive: 20.6 µM [activator, single point]"
22,CCc1nn2c(=O)cc(COC(=O)c3cccc(NC(=O)CCc4ccccc4)c3)nc2s1,inactive
23,O=C(Cn1c(SCc2ccccc2)nc2ccccc21)N1CCOCC1,"inconclusive: 0.058 µM [inhibitor, partial curve, poor fit]"

row,SMILES,Potency
1,CCc1ccc(NC(=O)c2noc3c2CCC3)cc1,"inconclusive: 7.3 µM [inhibitor, partial curve, poor fit]"
2,CN1CCCC(CC2Oc3ccccc3Sc3ccccc32)C1 (stereo unspecified),"inconclusive: 35.5 µM [inhibitor, partial curve, poor fit]"
3,CCc1ccccc1NC(=O)CN(C)C(=O)Cn1ncc(Cl)c(Cl)c1=O,"inconclusive: 12.6 µM [inhibitor, partial curve, poor fit]"
4,CCn1cnc2cc(NCc3nc4ccccc4n3Cc3ccccc3)ccc21,active: 10 µM
5,O=C(Nc1ccc(Br)cc1F)c1ccc2c(c1)OCCO2,"inconclusive: 11.2 µM [inhibitor, single point]"
6,O=S(=O)(c1ccc(F)cc1)n1ccc2cccnc21,inactive
7,COc1c(F)c(F)c(C(=O)Nc2ccc(N3CCN(Cc4ccccc4)CC3)cc2)c(F)c1F,"inconclusive: 16.4 µM [inhibitor, partial curve]"
8,COc1ccc(/C=N/Nc2cc(N(C)C)nc(N(C)C)n2)cc1,"inconclusive: 20.6 µM [inhibitor, partial curve, poor fit]"
9,Cc1nnc(NC(=O)CSc2nc3ccccc3o2)s1,inactive
10,CCOC(=O)c1cnc2cc(-c3ccc(OCC)cc3)nn2c1-c1ccccc1,"inconclusive: 3.16 µM [inhibitor, full curve, poor fit]"
11,O=C(Nc1cccc(S(=O)(=O)N2CCCCC2)c1)c1cc(=O)[nH]c2ccccc12,inactive
12,CN(CCN1CCc2ccccc2C1)Cc1nc(-c2ccc3c(c2)OCO3)no1,inactive
13,CCc1ccc(NC(=O)CC2C(=O)N(c3cccc(OC)c3)C(=O)N2Cc2ccc(F)cc2)cc1 (stereo unspecified),inactive
14,Cc1nc2ccn(Cc3ccccc3)c(=O)c2cc1C(=O)N1CCN(c2ccc(F)cc2)CC1,"inconclusive: 35.5 µM [inhibitor, single point]"
15,COc1ccc(C(CNC(=O)Cc2ccccc2)N2CCCCC2)cc1 (stereo unspecified),inactive
16,CC(Sc1nnc2ccc3ccccc3n12)C(=O)Nc1ccc(Cl)cc1 (stereo unspecified),inactive
17,Cc1cc(C)n(-c2ccc(NC(=O)C3CCCCN3C(=O)c3ccc(C)s3)cc2)n1 (stereo unspecified),"inconclusive: 20 µM [inhibitor, partial curve]"
18,Cc1ccc(S(=O)(=O)N2CCN(c3ncnc4scc(-c5ccccc5)c34)CC2)cc1,active: 11.2 µM
19,Cc1ccccc1CNC(=O)CCc1ccccc1,inactive
20,COc1ccc(Nc2nc(-c3cccnc3)cs2)c(OC)c1,inactive
21,COc1ccc(/C=C2\SC(=O)N(CC(=O)Nc3cccc(C)c3)C2=O)cc1O,"inconclusive: 22.4 µM [inhibitor, single point]"
22,COc1ccc(Nc2nc(N)nc(CN3CCC(C)CC3)n2)cc1,inactive
23,CCn1cc(C(=O)NC(C)CCc2ccccc2)c(=O)c2cc(S(=O)(=O)N(C)C)ccc21 (stereo unspecified),active: 6.31 µM

# Among those listed so far, three have a nitro group on carbon:
row,SMILES,Potency
1,Cc1ccc(CNC(=O)c2ccc([N+](=O)[O-])o2)cc1,"inconclusive: 25.9 µM [inhibitor, partial curve, poor fit]"
2,Cc1nn(C(=O)Cn2ccc([N+](=O)[O-])n2)c(C)c1Cl,"inconclusive: 0.891 µM [inhibitor, single point]"
10,COc1cc(NC(=O)CN2C(=O)NC(c3ccccc3)(c3ccccc3)C2=O)c(C)cc1[N+](=O)[O-],"inconclusive: 22.4 µM [inhibitor, partial curve]"
